Data as given in the supplement of paper PMC10849652.
The list shows a part of the results.

Chains of the proteins cited; added tags and fusions are not shown. Lines headed by an entry give the natural chain unless they say otherwise; changes in a name come on top.
UniProt P62166, whole entry, looked up: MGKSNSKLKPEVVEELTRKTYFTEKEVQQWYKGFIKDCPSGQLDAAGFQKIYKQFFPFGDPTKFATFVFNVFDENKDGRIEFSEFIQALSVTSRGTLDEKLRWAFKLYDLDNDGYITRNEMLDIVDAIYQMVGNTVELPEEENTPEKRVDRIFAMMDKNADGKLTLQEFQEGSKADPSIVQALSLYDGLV
UniProt Q96NT1: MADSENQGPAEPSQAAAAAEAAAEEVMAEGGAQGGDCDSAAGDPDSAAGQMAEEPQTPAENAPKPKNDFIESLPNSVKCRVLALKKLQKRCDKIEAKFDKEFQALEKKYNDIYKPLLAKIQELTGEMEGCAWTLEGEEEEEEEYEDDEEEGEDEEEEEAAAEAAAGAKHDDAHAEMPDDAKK
UniProt Q15742: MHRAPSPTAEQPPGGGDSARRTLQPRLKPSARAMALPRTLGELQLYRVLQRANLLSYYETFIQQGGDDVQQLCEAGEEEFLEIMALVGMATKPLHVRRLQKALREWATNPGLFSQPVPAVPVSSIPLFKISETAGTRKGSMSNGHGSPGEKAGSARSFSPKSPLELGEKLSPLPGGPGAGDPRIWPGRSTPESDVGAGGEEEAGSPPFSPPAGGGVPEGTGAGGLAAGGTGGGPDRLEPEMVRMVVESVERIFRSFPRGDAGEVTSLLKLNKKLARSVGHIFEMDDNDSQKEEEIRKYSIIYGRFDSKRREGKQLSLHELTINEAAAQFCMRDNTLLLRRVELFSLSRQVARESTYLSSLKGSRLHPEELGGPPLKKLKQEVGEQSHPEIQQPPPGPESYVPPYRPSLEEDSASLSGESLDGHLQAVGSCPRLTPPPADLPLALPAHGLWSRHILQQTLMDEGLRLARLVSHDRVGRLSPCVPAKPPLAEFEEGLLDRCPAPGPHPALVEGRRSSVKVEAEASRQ
UniProt Q9Y5N5: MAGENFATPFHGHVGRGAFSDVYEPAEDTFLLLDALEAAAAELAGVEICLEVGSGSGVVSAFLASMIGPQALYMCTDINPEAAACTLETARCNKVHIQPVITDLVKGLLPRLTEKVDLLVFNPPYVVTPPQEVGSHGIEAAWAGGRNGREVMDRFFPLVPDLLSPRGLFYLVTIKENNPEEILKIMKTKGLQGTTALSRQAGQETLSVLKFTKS
UniProt Q96NY9: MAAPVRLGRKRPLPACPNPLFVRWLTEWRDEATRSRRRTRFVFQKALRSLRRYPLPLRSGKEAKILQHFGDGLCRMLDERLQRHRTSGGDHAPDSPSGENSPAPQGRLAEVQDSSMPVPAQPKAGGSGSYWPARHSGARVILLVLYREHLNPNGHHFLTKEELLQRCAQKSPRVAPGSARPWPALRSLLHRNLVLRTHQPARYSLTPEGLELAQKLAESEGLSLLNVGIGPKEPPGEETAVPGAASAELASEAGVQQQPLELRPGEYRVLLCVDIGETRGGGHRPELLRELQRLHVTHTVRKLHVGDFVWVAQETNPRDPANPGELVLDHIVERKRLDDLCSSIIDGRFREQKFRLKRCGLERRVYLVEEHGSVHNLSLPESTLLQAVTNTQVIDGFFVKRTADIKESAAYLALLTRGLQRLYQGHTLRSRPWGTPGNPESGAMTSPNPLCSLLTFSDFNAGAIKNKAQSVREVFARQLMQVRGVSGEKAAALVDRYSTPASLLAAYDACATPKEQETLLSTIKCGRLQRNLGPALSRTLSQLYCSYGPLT
UniProt Q15080: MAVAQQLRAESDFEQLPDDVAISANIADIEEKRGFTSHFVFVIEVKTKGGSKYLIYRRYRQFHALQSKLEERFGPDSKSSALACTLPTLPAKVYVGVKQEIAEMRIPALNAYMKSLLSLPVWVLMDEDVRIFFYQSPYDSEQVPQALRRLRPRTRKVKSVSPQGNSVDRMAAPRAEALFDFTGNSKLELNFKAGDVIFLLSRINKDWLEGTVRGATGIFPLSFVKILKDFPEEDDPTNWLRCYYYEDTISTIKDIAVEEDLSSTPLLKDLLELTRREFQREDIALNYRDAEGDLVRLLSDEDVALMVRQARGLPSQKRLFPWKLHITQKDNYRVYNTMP
UniProt P19105: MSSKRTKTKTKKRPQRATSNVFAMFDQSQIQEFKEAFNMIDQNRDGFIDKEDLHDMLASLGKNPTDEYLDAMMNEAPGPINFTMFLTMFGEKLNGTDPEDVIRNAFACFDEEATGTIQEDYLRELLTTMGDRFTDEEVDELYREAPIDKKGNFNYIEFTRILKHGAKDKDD
UniProt P13533, whole entry, looked up: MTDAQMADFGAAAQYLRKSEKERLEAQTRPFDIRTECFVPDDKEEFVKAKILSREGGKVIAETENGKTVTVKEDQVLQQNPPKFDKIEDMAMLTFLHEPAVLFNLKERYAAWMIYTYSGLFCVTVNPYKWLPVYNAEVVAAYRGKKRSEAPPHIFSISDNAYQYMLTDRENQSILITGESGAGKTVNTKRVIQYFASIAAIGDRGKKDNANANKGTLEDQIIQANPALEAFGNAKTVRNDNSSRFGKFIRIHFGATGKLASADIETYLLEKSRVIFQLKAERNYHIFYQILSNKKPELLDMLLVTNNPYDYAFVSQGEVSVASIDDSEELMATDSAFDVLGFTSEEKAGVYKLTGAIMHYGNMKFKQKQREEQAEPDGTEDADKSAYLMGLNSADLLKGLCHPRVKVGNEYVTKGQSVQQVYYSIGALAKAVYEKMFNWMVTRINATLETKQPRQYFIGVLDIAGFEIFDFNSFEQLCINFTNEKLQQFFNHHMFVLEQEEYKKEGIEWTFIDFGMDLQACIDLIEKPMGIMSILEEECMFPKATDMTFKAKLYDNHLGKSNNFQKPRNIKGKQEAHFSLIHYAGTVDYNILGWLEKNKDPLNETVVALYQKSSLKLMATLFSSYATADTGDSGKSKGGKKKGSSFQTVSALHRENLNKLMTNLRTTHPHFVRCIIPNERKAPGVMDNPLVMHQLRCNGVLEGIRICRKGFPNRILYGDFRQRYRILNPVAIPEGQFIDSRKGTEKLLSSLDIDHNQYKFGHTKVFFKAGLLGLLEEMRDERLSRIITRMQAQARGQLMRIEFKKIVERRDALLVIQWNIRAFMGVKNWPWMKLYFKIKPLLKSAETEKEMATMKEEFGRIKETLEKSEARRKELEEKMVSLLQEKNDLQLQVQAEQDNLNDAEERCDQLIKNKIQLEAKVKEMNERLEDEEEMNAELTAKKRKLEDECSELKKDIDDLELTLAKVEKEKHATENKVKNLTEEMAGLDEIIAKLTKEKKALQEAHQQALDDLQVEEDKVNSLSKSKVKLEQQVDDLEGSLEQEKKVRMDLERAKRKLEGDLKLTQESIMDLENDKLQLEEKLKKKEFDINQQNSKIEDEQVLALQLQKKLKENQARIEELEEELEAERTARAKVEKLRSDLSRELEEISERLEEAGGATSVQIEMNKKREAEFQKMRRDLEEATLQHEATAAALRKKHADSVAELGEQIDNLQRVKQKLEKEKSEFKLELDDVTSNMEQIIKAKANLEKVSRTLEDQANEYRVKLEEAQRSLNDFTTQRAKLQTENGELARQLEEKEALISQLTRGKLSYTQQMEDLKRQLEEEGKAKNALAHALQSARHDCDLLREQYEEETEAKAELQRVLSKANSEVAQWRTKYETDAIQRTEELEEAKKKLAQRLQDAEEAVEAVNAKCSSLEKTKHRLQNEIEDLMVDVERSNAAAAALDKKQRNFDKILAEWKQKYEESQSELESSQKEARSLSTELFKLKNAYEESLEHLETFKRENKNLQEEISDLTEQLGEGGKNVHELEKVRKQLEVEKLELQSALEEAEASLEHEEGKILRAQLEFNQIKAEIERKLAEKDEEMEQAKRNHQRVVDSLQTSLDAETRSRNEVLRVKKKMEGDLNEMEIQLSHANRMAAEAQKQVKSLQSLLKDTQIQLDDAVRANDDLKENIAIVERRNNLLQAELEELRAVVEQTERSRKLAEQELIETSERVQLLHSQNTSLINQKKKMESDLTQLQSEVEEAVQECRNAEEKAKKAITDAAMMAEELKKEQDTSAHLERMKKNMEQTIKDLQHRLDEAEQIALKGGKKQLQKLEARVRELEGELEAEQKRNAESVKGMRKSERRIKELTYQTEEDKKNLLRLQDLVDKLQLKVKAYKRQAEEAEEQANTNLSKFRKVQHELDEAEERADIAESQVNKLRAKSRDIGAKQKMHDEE
UniProt Q969V3: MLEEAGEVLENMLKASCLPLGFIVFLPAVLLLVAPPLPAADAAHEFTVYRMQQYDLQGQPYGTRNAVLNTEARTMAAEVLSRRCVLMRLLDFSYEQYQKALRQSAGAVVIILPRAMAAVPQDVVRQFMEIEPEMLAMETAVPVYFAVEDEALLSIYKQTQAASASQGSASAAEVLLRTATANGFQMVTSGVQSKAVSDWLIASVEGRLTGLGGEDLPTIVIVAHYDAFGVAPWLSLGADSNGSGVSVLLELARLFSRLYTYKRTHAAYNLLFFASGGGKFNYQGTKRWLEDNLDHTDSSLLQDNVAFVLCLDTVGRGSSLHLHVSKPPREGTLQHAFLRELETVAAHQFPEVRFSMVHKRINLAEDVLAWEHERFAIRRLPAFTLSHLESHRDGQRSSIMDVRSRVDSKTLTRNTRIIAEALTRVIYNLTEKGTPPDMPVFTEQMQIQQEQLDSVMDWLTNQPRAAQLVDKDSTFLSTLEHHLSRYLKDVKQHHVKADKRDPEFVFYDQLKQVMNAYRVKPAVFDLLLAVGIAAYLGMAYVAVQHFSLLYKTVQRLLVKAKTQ
UniProt P01106: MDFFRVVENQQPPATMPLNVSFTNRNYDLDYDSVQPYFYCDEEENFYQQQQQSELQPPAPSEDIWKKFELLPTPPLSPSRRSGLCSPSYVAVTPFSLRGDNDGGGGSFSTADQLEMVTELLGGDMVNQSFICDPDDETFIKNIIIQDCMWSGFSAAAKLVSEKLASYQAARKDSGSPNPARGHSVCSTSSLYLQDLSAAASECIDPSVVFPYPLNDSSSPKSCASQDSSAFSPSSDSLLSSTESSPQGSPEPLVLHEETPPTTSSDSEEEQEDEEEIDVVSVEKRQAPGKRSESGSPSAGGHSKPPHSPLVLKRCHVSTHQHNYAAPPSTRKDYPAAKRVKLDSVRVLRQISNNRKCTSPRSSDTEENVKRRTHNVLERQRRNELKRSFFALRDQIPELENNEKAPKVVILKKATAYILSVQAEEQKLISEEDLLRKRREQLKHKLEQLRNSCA
UniProt Q93015: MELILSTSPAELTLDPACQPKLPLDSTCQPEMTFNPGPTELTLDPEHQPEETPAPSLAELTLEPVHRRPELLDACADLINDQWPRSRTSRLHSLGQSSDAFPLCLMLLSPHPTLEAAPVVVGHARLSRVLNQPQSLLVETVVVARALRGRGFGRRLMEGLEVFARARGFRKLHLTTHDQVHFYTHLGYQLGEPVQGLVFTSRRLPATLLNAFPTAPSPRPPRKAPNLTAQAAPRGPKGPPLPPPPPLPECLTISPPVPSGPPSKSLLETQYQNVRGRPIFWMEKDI
UniProt O15049: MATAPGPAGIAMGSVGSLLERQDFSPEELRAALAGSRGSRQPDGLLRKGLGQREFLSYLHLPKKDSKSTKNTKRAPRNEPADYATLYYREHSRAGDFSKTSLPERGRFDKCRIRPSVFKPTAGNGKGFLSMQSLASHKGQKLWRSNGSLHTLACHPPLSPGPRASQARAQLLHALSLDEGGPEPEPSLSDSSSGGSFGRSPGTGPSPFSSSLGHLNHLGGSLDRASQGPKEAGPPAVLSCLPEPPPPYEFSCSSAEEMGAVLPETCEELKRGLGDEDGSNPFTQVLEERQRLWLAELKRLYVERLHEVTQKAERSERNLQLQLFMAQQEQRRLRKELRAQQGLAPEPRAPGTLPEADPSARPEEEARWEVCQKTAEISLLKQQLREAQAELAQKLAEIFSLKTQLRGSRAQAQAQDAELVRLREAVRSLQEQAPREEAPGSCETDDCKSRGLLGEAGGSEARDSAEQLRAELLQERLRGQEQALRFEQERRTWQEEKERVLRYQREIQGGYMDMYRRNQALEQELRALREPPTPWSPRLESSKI
UniProt Q9NPC7: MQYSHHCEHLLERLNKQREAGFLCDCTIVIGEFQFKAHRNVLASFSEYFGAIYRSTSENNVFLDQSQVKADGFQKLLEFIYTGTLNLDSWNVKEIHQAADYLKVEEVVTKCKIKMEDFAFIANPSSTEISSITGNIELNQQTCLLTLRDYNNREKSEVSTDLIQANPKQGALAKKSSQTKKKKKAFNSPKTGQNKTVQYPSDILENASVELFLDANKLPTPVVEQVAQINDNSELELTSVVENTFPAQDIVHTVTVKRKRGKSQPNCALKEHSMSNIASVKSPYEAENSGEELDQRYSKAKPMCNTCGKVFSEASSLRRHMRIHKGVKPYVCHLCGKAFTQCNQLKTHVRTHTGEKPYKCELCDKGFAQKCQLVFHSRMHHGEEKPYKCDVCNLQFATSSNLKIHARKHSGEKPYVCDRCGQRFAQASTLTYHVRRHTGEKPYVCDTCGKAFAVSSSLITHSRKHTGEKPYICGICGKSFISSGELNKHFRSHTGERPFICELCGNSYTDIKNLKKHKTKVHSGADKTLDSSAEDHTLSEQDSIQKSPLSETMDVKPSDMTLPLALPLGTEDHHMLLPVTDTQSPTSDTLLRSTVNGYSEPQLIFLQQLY

Key:
Test in all cases: log2 fold change, soluble protein after heating vs DMSO (PISA); higher = thermal stabilisation; K562 lysate, 10 uM; active = over 0.2 and 3.5 SD of the protein, either way, in both replicates (recomputed)
nilotinib = compound: Cc1cn(-c2cc(NC(=O)c3ccc(C)c(Nc4nccc(-c5cccnc5)n4)c3)cc(C(F)(F)F)c2)cn1 [nilotinib]
How it was run: (§1)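 Soluble protein was defined as the supernatant remaining after 21,000xg for 90 min, following pooling of heated aliquots and adjustment to 0.5% NP-40 at 4°C. Before that, crude K562 extract at 1 mg/mL protein in PBS pH 7.4 with 1 mM MgCl2 was treated with 10 μM compound for 30 min and heated for 3 min across 48°C-58°C. Quantification used TMTpro 16plex LC-MS/MS with channel sums equalised, and values are log-two fold changes in thermal stability relative to solvent controls from duplicates.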

[1] = compound: Cc1nc(Nc2n[nH]c3c2CN(C(=O)N[C@H](CN(C)C)c2ccccc2)C3(C)C)c2sccc2n1
How it was run: as §1

dasatinib = compound: Cc1nc(Nc2ncc(C(=O)Nc3c(C)cccc3Cl)s2)cc(N2CCN(CCO)CC2)n1 [dasatinib]
How it was run: as §1

[2] = compound: Cc1ncc(-c2ccnc(Nc3ccc(S(C)(=O)=O)cc3)n2)n1C(C)C
How it was run: as §1

[3] = compound: Cn1cc(-c2ccc3c(c2)CCN3C(=O)Cc2cccc(C(F)(F)F)c2)c2c(N)ncnc21
How it was run: as §1

quisinostat = compound: Cn1cc(CNCC2CCN(c3ncc(C(=O)NO)cn3)CC2)c2ccccc21 [quisinostat]
How it was run: as §1

tipifarnib = compound: Cn1cncc1[C@@](N)(c1ccc(Cl)cc1)c1ccc2c(c1)c(-c1cccc(Cl)c1)cc(=O)n2C [tipifarnib]
How it was run: as §1

[4] = compound: NC(=O)Nc1cc(-c2cccc(F)c2)sc1C(=O)N[C@H]1CCCNC1
How it was run: as §1

[5] = compound: NC(=O)c1cnc(N[C@@H]2CCCC[C@@H]2N)nc1Nc1cccc(-n2nccn2)c1
How it was run: as §1

[6] = compound: NC1(c2ccc(-c3nc4ccn5c(=O)[nH]nc5c4cc3-c3ccccc3)cc2)CCC1
How it was run: as §1

[7] = compound: NCC(=O)Nc1ccc(-n2nc(C(F)(F)F)cc2-c2ccc3c(ccc4ccccc43)c2)cc1
How it was run: as §1

vorinostat = compound: O=C(CCCCCCC(=O)Nc1ccccc1)NO [vorinostat]
How it was run: as §1

silmitasertib = compound: O=C(O)c1ccc2c(c1)nc(Nc1cccc(Cl)c1)c1ccncc12 [silmitasertib]
How it was run: as §1

[8] = compound: O=C1NC(=O)C(c2cnc3ccccn23)=C1c1cn2c3c(cc(F)cc13)CN(C(=O)N1CCCCC1)CC2
How it was run: as §1

entospletinib = compound: c1cn2cc(-c3ccc4cn[nH]c4c3)nc(Nc3ccc(N4CCOCC4)cc3)c2n1 [entospletinib]
How it was run: as §1

Measured: log2 fold change

NCS1 (UniProt P62166)
inactive: nilotinib -0.003 | [1] 0.012 | dasatinib 0.014 | [2] 0.015 | [3] -0.004 | quisinostat -0.013 | tipifarnib 0.016 | [4] -0.003 | [5] -0.015 | [6] 0.037 | [7] 0.006 | vorinostat 0.049 | silmitasertib -0.019 | [8] -0.037 | entospletinib -0.021

MUC5B (UniProt Q9HC84)
inactive: nilotinib -0.064 | [1] -0.111 | dasatinib -0.009 | [2] -0.005 | [3] -0.018 | quisinostat -0.192 | tipifarnib -0.051 | [4] 0.077 | [5] 0.064 | [6] 0.008 | vorinostat -0.374 | silmitasertib 0.128 | [8] -0.011 | entospletinib 0.022

NAP1L5 (UniProt Q96NT1)
inactive: nilotinib -0.008 | [1] -0.053 | dasatinib 0.024 | [2] 0.045 | [3] 0.01 | quisinostat 0.068 | tipifarnib 0.054 | [4] -0.05 | [5] -0.049 | [6] 0.005 | [7] 0.023 | vorinostat 0.059 | silmitasertib 0.033 | [8] -0.049 | entospletinib 0.071

NAB2 (UniProt Q15742)
inactive: nilotinib 0.009 | [1] 0.034 | dasatinib -0.214 | [2] -0.032 | [3] 0.264 | quisinostat 0.006 | tipifarnib -0.022 | [4] 0.028 | [6] 0.062 | [7] -0.005 | vorinostat -0.163 | silmitasertib 0.045 | [8] -0.063 | entospletinib 0.017

MYL3 (UniProt P08590)
inactive: nilotinib 0.04 | [1] 0.023 | [2] 0.059 | quisinostat -0.02 | tipifarnib 0.018 | [4] 0.002 | [5] -0.001 | [6] -0.099 | [7] -0.106 | vorinostat 0.107 | silmitasertib -0.042 | [8] 0.017 | entospletinib 0.008

MYLK3 (UniProt Q32MK0)
inactive: nilotinib -0.18 | [1] -0.211 | [2] 0.262 | quisinostat -0.022 | tipifarnib -0.076 | [4] -0.019 | [5] 0.001 | [6] -0.03 | vorinostat -0.182 | silmitasertib -0.117 | [8] 0.024 | entospletinib -0.109

N6AMT1 (UniProt Q9Y5N5)
inactive: nilotinib -0.009 | [1] 0.1 | dasatinib 0.002 | [2] 0.018 | [3] 0.013 | quisinostat 0 | tipifarnib 0.06 | [4] -0.013 | [5] -0.027 | [6] 0.037 | [7] -0.043 | vorinostat 0.076 | silmitasertib -0.025 | [8] -0.007 | entospletinib -0.011

MZT2B (UniProt Q6NZ67)
inactive: nilotinib -0.019 | [1] 0.075 | [2] -0.023 | quisinostat -0.043 | tipifarnib -0.052 | [4] 0.012 | [5] -0.081 | [6] -0.003 | [7] 0.037 | vorinostat 0.048 | silmitasertib -0.046 | [8] -0.037 | entospletinib -0.073

NAGLU (UniProt P54802)
inactive: nilotinib -0.022 | [1] -0.006 | dasatinib 0.046 | [2] 0.046 | [3] -0.079 | quisinostat 0.028 | tipifarnib 0.075 | [4] 0.014 | [5] 0.022 | [6] -0.103 | [7] 0.003 | vorinostat 0.138 | silmitasertib -0.044 | [8] 0.059 | entospletinib -0.051

MYLK (UniProt Q15746)
inactive: nilotinib 0.138 | [1] -0.197 | [2] -0.108 | quisinostat 0.048 | tipifarnib -0.035 | [4] -0.175 | [5] 0.079 | [7] -0.312 | [8] -0.294 | entospletinib -0.096

MUS81 (UniProt Q96NY9)
inactive: nilotinib 0.037 | [1] -0.007 | dasatinib 0.152 | [2] -0.112 | [3] -0.029 | quisinostat -0.115 | tipifarnib -0.026 | [4] 0.03 | [5] -0.148 | [6] 0.11 | vorinostat -0.028 | silmitasertib 0.081 | [8] 0.082

MYO10 (UniProt Q9HD67)
inactive: nilotinib -0.019 | [1] -0.021 | [2] 0.126 | quisinostat 0.074 | tipifarnib -0.063 | [4] -0.051 | [6] -0.161 | [7] 0.401 | vorinostat -0.038 | silmitasertib 0 | [8] 0.159

NARS1 (UniProt K7ENF0)
inactive: quisinostat 0.074 | [4] 0.016 | [8] 0.066

NACA2 (UniProt Q9H009)
inactive: dasatinib 0.064 | [3] 0.032

MYBL2 (UniProt P10244)
active: vorinostat -0.333
inactive: dasatinib -0.055 | [3] -0.012 | quisinostat -0.071 | [4] -0.021 | [6] -0.015 | [7] -0.03 | silmitasertib 0.003 | [8] 0.008 | entospletinib 0.025

MYH2 (UniProt Q9UKX2)
inactive: dasatinib -0.337 | [3] 0.73

MYT1L (UniProt Q9UL68)
inactive: [5] 0.035

NAA15, A0A0B4J1W3
inactive: dasatinib -0.025 | [3] 0.01 | quisinostat 0.01 | [4] -0.009 | [5] 0.016 | [6] 0.054 | [7] -0.038 | vorinostat -0.339 | silmitasertib -0.1 | [8] -0.071 | entospletinib 0.011

NAV2 (UniProt Q8IVL1)
inactive: nilotinib 0.084 | [1] 0.117 | [2] -0.361 | tipifarnib -0.168 | [5] -0.286 | entospletinib -0.007

NCF4 (UniProt Q15080)
inactive: quisinostat 0.103 | [4] 0 | [8] -0.075 | entospletinib 0.036

NACA (UniProt F8VNW4)
inactive: [5] -0.063

NAT14 (UniProt Q8WUY8)
inactive: dasatinib 0.028 | [3] 0.082 | quisinostat -0.085 | [4] 0.022 | [6] -0.009 | [7] -0.026 | vorinostat 0.004 | silmitasertib 0.106 | [8] 0.047 | entospletinib -0.024

MYOF (UniProt Q9NZM1)
inactive: dasatinib 0.231 | [3] -0.129

MYL12A (UniProt P19105)
inactive: [6] -0.055 | vorinostat 0.171 | silmitasertib 0.035

NAP1L1 (UniProt H0YHC3)
inactive: [5] -0.071

NBR1 (UniProt Q14596)
inactive: dasatinib -0.03 | [3] 0.137 | quisinostat -0.061 | [4] 0.039 | [5] -0.029 | [6] 0.155 | [7] 0.031 | vorinostat -0.073 | silmitasertib -0.038 | [8] 0.019 | entospletinib -0.226

MYH3 (UniProt P11055)
inactive: dasatinib -0.014 | [3] 0.053 | [6] -0.072 | [7] -0.064 | vorinostat 0.141 | silmitasertib -0.052

N4BP2L1 (UniProt Q5TBK1)
inactive: nilotinib -0.186 | [1] 0.041 | [2] 0.026 | tipifarnib -0.022 | [5] 0.044 | [7] -0.063 | entospletinib -0.022

MYH6 (UniProt P13533)
inactive: quisinostat -0.007 | [4] 0.082 | [5] 0.092 | [6] -0.114 | vorinostat 0.209 | silmitasertib -0.053 | [8] 0.188 | entospletinib 0.102

NCL (UniProt H7BY16)
inactive: nilotinib 0.07 | [1] 0.024 | [2] 0.036 | tipifarnib 0.211

MYO18B isoform 3 (UniProt Q8IUG5)
inactive: dasatinib -0.095 | [3] 0 | quisinostat -0.062 | [4] 0.054 | [5] 0.026 | [6] -0.018 | [7] -0.011 | vorinostat -0.454 | silmitasertib 0.112 | [8] 0.064 | entospletinib -0.033

NAP1L4 (UniProt C9J6D1)
inactive: [5] 0.236

NCLN isoform 2 (UniProt Q969V3)
inactive: quisinostat 0.003 | [4] 0.154 | [7] 0.067 | [8] 0.067 | entospletinib -0.012

NABP1 (UniProt Q96AH0)
inactive: nilotinib -0.16 | [1] 0.003 | [2] -0.049 | tipifarnib -0.027 | [7] -0.312 | entospletinib -0.064

NCCRP1 (UniProt Q6ZVX7)
inactive: dasatinib 0.221 | [3] -0.152 | quisinostat 0.161 | [4] -0.25 | [5] 0.032 | [8] 0.376

NAMPT (UniProt C9JF35)
inactive: [5] 0.214 | [6] 0.057 | vorinostat -0.03 | silmitasertib 0.146

NAP1L4 (UniProt C9JZI7)
inactive: dasatinib -0.256 | [3] 0.05 | [5] 0.08 | [6] 0.216 | vorinostat -0.071 | silmitasertib 0.051

NCOA1 isoform 2 (UniProt Q15788)
inactive: dasatinib -0.18 | [3] 0.179 | [5] 0.335 | [6] 0.27 | [7] -0.08 | vorinostat -0.304 | silmitasertib 0.075

NCOA7 isoform 2 (UniProt Q8NI08)
inactive: dasatinib -0.122 | [3] 0.012 | [5] -0.053

Random excerpt: 3 entries already listed
MYL12A (UniProt P19105)
inactive: [6] -0.055 | vorinostat 0.171 | silmitasertib 0.035

NAT14 (UniProt Q8WUY8)
inactive: dasatinib 0.028 | [3] 0.082 | quisinostat -0.085 | [4] 0.022 | [6] -0.009 | [7] -0.026 | vorinostat 0.004 | silmitasertib 0.106 | [8] 0.047 | entospletinib -0.024

MZT2B (UniProt Q6NZ67)
inactive: nilotinib -0.019 | [1] 0.075 | [2] -0.023 | quisinostat -0.043 | tipifarnib -0.052 | [4] 0.012 | [5] -0.081 | [6] -0.003 | [7] 0.037 | vorinostat 0.048 | silmitasertib -0.046 | [8] -0.037 | entospletinib -0.073

Following part:

MYC isoform 2 (UniProt P01106)
inactive: nilotinib -0.12 | [1] -0.086 | [2] 0.016 | tipifarnib -0.129

NAA80 isoform 2 (UniProt Q93015)
inactive: nilotinib -0.075 | [1] 0.026 | [2] 0.011 | tipifarnib -0.036 | [6] 0.104 | vorinostat -0.419 | silmitasertib -0.106

N4BP3 (UniProt O15049)
inactive: nilotinib -0.183 | [1] 0.15 | [2] 0.121 | tipifarnib 0.078 | [5] -0.004 | [6] 0.146 | vorinostat -0.666 | silmitasertib 0.129

MYNN (UniProt Q9NPC7)
inactive: dasatinib 0.02 | [3] -0.031 | [6] 0.149 | [7] -0.023 | vorinostat 0.175 | silmitasertib -0.221

NASP isoform 2 (UniProt P49321)
inactive: [5] 0.111
